# ± gives the standard deviation. This is a selection; strong and weak results do not stand in their true shares.
# System: OVCAR-3-derived ovarian cancer stem-like cells (spheroids)
# Experiment: cell growth relative to untreated control; higher = more growth (less inhibition)
# Conditions: 2.29 µM; 96 h
# Summary of the method: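 Stem-like cells derived from OVCAR-3 spheroids were dissociated with trypsin and seeded at 50,000 cells/mL in stem cell medium in ultra-low attachment 96-well plates, then preincubated for 24 h. Each compound was added at 2.29 uM to 4 replicate wells and left for 96 h at 37°C, 5% CO2. Viability came from TOX8 resazurin fluorescence (ex 560/em 590 nm) read after 4 h. Percent growth was expressed relative to untreated wells, after blank subtraction and removal of outliers by the Grubbs test.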
smiles,measurement,value
COc1c(O)cc2c(c1OC)-c1ccc(OC)c(=O)cc1[C@@H](NC(C)=O)CC2,cell growth,21.7 ± 5.6%
